Data published in PMC13581189.
These are yes or no findings as the source states them, for the method shown. In cells and extracts the contact can be indirect. Some results given as binding are weak or reduced against the parent protein; the word gives no strength.

Chains of the proteins cited; added tags and fusions are not shown. Lines headed by an entry give the natural chain unless they say otherwise; changes in a name come on top.
UniProt Q13351: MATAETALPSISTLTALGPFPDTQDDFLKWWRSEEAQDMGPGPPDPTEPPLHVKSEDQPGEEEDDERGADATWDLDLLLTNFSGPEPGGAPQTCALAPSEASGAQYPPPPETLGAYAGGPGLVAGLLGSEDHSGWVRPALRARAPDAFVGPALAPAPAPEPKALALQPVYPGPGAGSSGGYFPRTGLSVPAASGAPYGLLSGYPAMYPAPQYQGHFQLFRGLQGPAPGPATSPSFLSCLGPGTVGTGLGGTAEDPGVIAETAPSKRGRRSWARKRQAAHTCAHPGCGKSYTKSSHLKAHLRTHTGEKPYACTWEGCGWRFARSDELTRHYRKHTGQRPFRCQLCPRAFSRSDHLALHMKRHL
UniProt P08047: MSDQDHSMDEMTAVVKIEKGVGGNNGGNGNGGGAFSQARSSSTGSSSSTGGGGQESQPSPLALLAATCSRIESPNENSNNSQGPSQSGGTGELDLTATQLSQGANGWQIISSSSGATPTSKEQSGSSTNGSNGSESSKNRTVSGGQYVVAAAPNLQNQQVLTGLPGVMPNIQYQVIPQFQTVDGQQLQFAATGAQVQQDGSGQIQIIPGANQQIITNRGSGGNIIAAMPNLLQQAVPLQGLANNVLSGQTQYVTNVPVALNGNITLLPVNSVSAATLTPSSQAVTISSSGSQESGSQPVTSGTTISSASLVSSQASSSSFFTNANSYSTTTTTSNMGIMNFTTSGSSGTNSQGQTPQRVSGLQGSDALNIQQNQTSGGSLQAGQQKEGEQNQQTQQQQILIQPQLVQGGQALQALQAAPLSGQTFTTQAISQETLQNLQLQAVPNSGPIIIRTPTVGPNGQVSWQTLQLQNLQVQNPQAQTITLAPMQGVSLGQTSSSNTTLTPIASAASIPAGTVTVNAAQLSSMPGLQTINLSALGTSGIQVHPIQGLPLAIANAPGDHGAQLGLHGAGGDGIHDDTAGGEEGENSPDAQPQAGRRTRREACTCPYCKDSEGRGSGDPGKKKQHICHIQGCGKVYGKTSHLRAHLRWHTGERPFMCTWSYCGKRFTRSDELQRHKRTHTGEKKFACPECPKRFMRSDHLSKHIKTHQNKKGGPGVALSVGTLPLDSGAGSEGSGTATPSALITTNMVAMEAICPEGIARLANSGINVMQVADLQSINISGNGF
UniProt P46099: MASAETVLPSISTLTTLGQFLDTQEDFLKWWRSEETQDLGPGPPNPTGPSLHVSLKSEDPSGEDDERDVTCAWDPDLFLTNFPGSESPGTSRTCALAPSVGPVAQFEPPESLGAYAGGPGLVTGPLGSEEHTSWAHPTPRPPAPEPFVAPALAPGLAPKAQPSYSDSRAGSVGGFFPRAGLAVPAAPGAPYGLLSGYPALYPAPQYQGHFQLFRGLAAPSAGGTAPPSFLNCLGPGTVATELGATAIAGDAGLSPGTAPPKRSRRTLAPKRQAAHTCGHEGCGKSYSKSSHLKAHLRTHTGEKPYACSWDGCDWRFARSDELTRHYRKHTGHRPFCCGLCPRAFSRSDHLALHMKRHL
UniProt P14859: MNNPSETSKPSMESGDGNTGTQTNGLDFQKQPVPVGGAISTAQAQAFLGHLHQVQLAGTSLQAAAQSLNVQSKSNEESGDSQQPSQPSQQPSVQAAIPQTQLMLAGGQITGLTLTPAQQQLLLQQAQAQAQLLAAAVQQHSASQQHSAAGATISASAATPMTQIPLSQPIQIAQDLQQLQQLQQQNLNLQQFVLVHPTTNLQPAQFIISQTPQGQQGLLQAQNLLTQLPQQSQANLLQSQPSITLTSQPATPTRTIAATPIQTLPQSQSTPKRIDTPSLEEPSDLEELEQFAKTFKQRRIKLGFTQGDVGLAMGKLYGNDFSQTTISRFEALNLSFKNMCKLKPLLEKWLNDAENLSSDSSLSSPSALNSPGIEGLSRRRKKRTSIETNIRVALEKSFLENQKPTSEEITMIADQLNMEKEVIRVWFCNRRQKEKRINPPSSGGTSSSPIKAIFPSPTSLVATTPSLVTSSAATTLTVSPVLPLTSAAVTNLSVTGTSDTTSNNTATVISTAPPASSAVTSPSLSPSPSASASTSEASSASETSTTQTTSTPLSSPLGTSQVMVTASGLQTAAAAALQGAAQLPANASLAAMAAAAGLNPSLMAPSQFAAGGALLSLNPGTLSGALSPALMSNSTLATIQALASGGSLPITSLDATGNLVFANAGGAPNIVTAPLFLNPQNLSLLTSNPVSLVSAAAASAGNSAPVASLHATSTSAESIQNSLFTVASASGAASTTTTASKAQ

What was measured:
Halo-Klf1 (human) = Halo-Klf1 (human) (UniProt Q13351); test: proximity-assisted photoactivation (PAPA); live U2OS cells; Halo-Klf1 sender coexpressed with SNAPf receiver from a bicistronic transgene at AAVS1; normalised to nuclear SNAPf control
[1] = molecular target: endogenous Halo-tagged Sp1 (human (endogenous in U2OS)) (UniProt P08047); test: proximity-assisted photoactivation (PAPA); live U2OS cells, 37°C; endogenous Halo-Sp1 (JF549 sender) with doxycycline-induced SNAPf-tagged receiver (JFX650); proximity index = PAPA/DR normalised to SNAPf-NLS; reports proximity within ~20 nm

Klf1 E325K (from UniProt Q13351 1-362)
binding (Halo-Klf1 (human)): binds

Klf1 K288X (from UniProt Q13351 1-287) (domain or fragment)
binding (Halo-Klf1 (human)): binds

Mouse Klf1 (from UniProt P46099 1-358)
binding (Halo-Klf1 (human)): binds

SNAPf-Klf1 (from UniProt Q13351 1-362)
binding (Halo-Klf1 (human)): binds

SNAPf-Oct1 (from UniProt P14859 1-743)
binding [1]: binds

SNAPf-Sp1 WT (from UniProt P08047 1-785)
binding [1]: binds
